Experimental data from paper PMC3026782, “The Cytoskeletal Protein Ndel1 Regulates Dynamin 2 GTPase Activity” (PLoS ONE, 2011).
Results are given in words; binding and its absence hold for the method and conditions named. A result given as binding can be weak or reduced; the word gives no strength. For some of these results: Tags and fused reporters may be left off the sequences shown. For some of these results: Binding seen in cells or lysates may run through a third protein. One block for each molecule: values may come before it.

Legend:
[1] = target: T1, Ndel1 (human (endogenous in HeLa)) (UniProt Q9GZM8); experiment: co-IP; immunoprecipitation with Ndel1 antibodies from lysates (HeLa cells, CAD cells, rat primary hippocampal neurons, adult mouse cortex); lysis buffer 50 mM Tris-HCl pH 7.4, 150 mM NaCl, 10 mM KCl, 1 mM EDTA, 0.5% NP40, 0.5% Tween-20; controls without antibody or with Myc antibody
T1 sequence: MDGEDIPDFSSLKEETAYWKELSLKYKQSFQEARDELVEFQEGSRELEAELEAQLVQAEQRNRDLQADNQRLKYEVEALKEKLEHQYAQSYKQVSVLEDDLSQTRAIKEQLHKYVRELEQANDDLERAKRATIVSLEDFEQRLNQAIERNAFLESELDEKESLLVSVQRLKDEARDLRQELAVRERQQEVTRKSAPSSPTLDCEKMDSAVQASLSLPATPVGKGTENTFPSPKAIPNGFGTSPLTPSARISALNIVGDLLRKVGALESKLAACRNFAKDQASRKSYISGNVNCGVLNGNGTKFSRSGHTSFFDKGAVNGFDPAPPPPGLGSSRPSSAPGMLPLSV

[2] = target: GST-Dyn2 F1 (GTPase domain); experiment: pull-down; GST-fused Dyn2, its GST fragments or GST with His-tagged Ndel1 on Glutathione Sepharose 4 Fast Flow or Ni-NTA Agarose beads; 20 mM HEPES, 150 mM NaCl, 1 mM DTT, 0.1% BSA, 4°C, 2 hours; both purified
[3] = target: GST-Dyn2 F5 (GTPase+middle+PH+GED domains); experiment: as above
GST-Dyn2 middle domain = experiment: as above

- binding [1]: binds
Molecule: Dynein intermediate chain (human (endogenous in HeLa))

- binding [2]: binds
- binding [3]: binds
- binding (GST-Dyn2 middle domain): binds
B1: His-tagged Ndel1 (natural protein, UniProt Q9GZM8 1-345, looked up)
chain: T1 sequence
